# From PubChem BioAssay AID2685 (National Center for Advancing Translational Sciences (NCATS), 2010)
# Screen size: about 320,000 compounds; about 2,100 (0.66%) were called active. Inconclusive results, whose numbers are uncertain, are shown with a selection of clear calls. Calls come from the whole dose curve; as a rule, active = well fitted inhibition curve with a large enough effect in the signal ratio, with a control signal flat (not every such curve was filed as active); inconclusive = small, poorly fitted or top-dose-only effect, or effect the other way, or a change in a side signal; inactive = flat fitted curve, though single readings scatter; the % refers to the signal ratio. A potency beside an inconclusive call is a rough fit, not a confirmed value. Where a SMILES comes first, the peptide text is derived from it. The star is where a group is joined. Cbz = O=C(OCc1ccccc1)*
# Experiment: qHTS Assay for Lipid Storage Modulators in Drosophila S3 Cells
# Conditions: BODIPY lipid droplet fluorescence, 18-24 h, cells fed with added oleic acid; lipid storage change, negative = inhibition: at 46.1 µM (top of the series) unless noted
# How it was run: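 Drosophila S3 cells got compounds at several concentrations plus oleic acid (400 uM solution). Laser-scanning cytometry with 488 nm excitation read lipid droplets at 500-530 nm and cells at 575-640 nm. Percent activity was relative to 20 uM Triacsin C.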
# % is set by controls: 0 for no effect and ±100 for the full control effect; potency is the fitted concentration of half-maximal effect.
Structure (SMILES),"lipid storage change, negative = inhibition",Potency
Cn1c(CCNC(=O)OC(C)(C)C)n[nH]c1=S,inconclusive: -5.31%,
CC(C)C1Cc2c(sc3ncnc(NN)c23)CO1 (centres undefined),inconclusive: 12.3%,
CCOC(=O)Cn1c(-c2cccnc2Cl)nc2ccccc21,,"inconclusive: 5.8 µM [falling, partial curve, poor fit]"
CCCCNC(=O)c1c[nH]c2ccc(S(=O)(=O)N3CCOCC3)cc2c1=O,inconclusive: 15.2%,
CCOc1cc(C(=O)NCCN2C(=O)S/C(=C\c3cccnc3)C2=O)cc(OCC)c1OCC,inconclusive: 7.86%,
C#CCOCCOCCOCCNc1nc(N2CCN(C(=O)CCCCCCCCCCNC(=O)[C@H](CCC(=O)O)n3cc(CCCCCN)nn3)CC2)nc(N2CCN(C(=O)CCCCCCCCCCNC(=O)[C@@H]([C@H](C)O)n3cc(C)nn3)CC2)n1,,"inconclusive: 6.51 µM [falling, single point]"
COc1ccc(Oc2nc3ccccc3n3cccc23)cc1,inconclusive: 51.2%,
COc1ccc(-n2nc3ccc(NS(C)(=O)=O)cc3n2)cc1Cl,inconclusive: 102%,
CC(C)(C)C1CCc2c(C(=O)NNC(=O)/C=C/C(=O)O)csc2C1 (centres undefined),inconclusive: 14.6%,
CC(NC(=O)NC(N)=O)(C(F)(F)F)C(F)(F)F,inactive,
COC(=O)N/N=C(\C)c1ccc2ccccc2c1OC(F)F,,"inconclusive: 11.6 µM [activator, partial curve]"
CCOc1ccc(N(C)S(=O)(=O)c2c[nH]c(C(=O)OC)c2)cc1,inconclusive: -128%,
O=C(CN1CCN(c2ccc(O)cc2)CC1)NC1CCCc2ccccc21 (centres undefined),inconclusive: 158%,
O=C(C1CCC(CNS(=O)(=O)c2cccc3nsnc23)CC1)N1CC=C(c2ccccc2)CC1 (centres undefined),inconclusive: -25.6%,
CC(C)CC(NC(=O)C1CCC(=O)N1C(=O)OCc1ccccc1)C(=O)NC(Cc1ccccc1)C(N)=O (centres undefined),inactive,
COc1ccc2c(c1)c1nnc(SCC(=O)Nc3ccccc3F)nc1n2C,,"inconclusive: 29.1 µM [falling, single point]"
COc1cc(/C=C/C(=O)OCC(=O)N(C)C2CCS(=O)(=O)C2)ccc1OC(F)F (centres undefined),inactive,
CC(C)(NC(=O)N1CCCC1)c1cccc(C(C)(C)NC(=O)N2CCCC2)c1,inconclusive: -31.3%,
CN(C)CCOC(=O)CCCCCCCCC(=O)OCCN(C)C,inconclusive: -13.6%,
CCOC(=O)c1ccc2ncc(C(=O)OCC)c(NCCN3CCOCC3)c2c1,inconclusive: -45.7%,
COCCNC(=S)N(CCc1c(C)[nH]c2ccc(OC)cc12)Cc1ccco1,inconclusive: -23.3%,
CCN1CCN(c2cc(C)c3cc(NC(=O)CCC(=O)Nc4ccc(OC)cc4OC)ccc3n2)CC1,,"inconclusive: 29.1 µM [falling, single point]"
Cc1cc(/C=N/n2cnnc2)c(C)n1-c1cc(Cl)ccc1Cl,inconclusive: 35.7%,
CNC(=O)c1c2c(nc3ccc(Br)cc13)CCCC2,,"inconclusive: 0.146 µM [activator, single point]"
Cc1c(NC(=O)C2CCCCN2S(=O)(=O)c2ccc(Cl)cc2)c(=O)n(-c2ccccc2)n1C (centres undefined),inconclusive: 12%,

Structure (SMILES),"lipid storage change, negative = inhibition",Potency
C[C@H]1[C@H]2c3nc4ccccc4n3C[C@H]1ON2C1CCCCC1,inconclusive: -29.2%,
CC(=O)c1cccc(NC(=S)NC2CCCCCCC2)c1,,"inconclusive: 25.9 µM [falling, single point]"
CN(C)C(CNC(=O)c1cccs1)c1ccco1 (centres undefined),,"inconclusive: 20.6 µM [activator, single point]"
COc1ccccc1CN1CC(C(=O)NCc2cnn(C)c2)CCC1=O (centres undefined),inconclusive: -1.73%,
COCCCn1c(=O)c2sccc2n2c(CCCC(=O)NCc3ccc(F)cc3)nnc12,,"inconclusive: 0.651 µM [falling, single point]"
CCCN(CC(=O)Nc1ccccc1C)C(=O)c1cn2ccccc2n1,inconclusive: -8.15%,
CCOc1ccc(C(=O)OCCN(C)C)cc1,,"inconclusive: 4.11 µM [cytotoxic, full curve, poor fit]"
CC(=O)N1CCc2cc(NC(=O)c3ccc(C)cc3)ccc21,,"inconclusive: 1.64 µM [rising, partial curve]"
COc1ccc(NC(=O)C2CCN(c3cnccn3)CC2)cc1Cl,,"inconclusive: 2.91 µM [activator, full curve, poor fit]"
CC(=O)OCC1=C(C(=O)O)N2C(=O)C(NC(=O)c3ccc(COc4cccc(Cl)c4Cl)o3)C2SC1 (centres undefined),,"inconclusive: 29.1 µM [falling, single point]"
O=C(COC(=O)C1(c2ccccc2F)CCCC1)N1CCNC1=O,inconclusive,
COc1ccc(NC(=O)c2cccc(S(=O)(=O)N3CCN(C)CC3)c2)c(OC)c1,,"inconclusive: 6.51 µM [falling, single point]"
Cc1sc2nc(CSCC(=O)N(C)CC(=O)Nc3ccc(F)cc3)[nH]c(=O)c2c1C,inconclusive: 60.4% [at 0.0737 µM],
CC(=NCc1ccco1)c1c(C)[nH]n(-c2nc3ccccc3s2)c1=O,inconclusive: 9.55%,
COc1ccc(NC(=O)CSc2nc(-c3ccco3)nc3cc(=O)[nH]n23)cc1Cl,inconclusive: 53.3%,
N/C(=N\OC(=O)Oc1ccccc1)c1cccc([N+](=O)[O-])c1,inconclusive: 1%,
Cc1ccc(S(=O)(=O)N2CCC(C(=O)Nc3ccc4c(c3)COC4=O)CC2)cc1,inconclusive: 6.14%,
O=C(NC(=O)N1CCCc2ccccc21)c1ccccc1,,"inconclusive: 0.092 µM [falling, full curve, poor fit]"
O=C(CSc1nnc(-c2ccoc2)o1)N1CCOCC1,,"inconclusive: 1.84 µM [rising, full curve, poor fit]"
Cc1c(C(N)=O)sc2ncn(CC(=O)N(C)C3CCCCC3)c(=O)c12,inactive,
Cc1ccc(C(=O)N2CCCC(N3CCN(c4cccc(C(F)(F)F)c4)CC3)C2)s1 (centres undefined),,"inconclusive: 6.51 µM [activator, single point]"
O=C(c1cccc2nc3ccccc3nc12)N1CCOCC1,inconclusive: -15.4%,
Cc1ccc(CNC(=O)c2ccc(CN3CCOCC3)cc2)cc1,inconclusive: 5.16%,
Cc1[nH]nc2c1C(=O)CC(C)(C)C2,,"inconclusive: 0.103 µM [falling, full curve, poor fit]"
O=C(Nc1ccc2c(c1)OCCO2)C1CCN(S(=O)(=O)c2cccs2)CC1,inconclusive: 32.9%,

Structure (SMILES),"lipid storage change, negative = inhibition",Potency
N=c1c(C(=O)NCC2CCCO2)cc2c(=O)n3ccccc3nc2n1C1CCCCC1 (centres undefined),inactive,
c1ccc(-c2cn3c(n2)CCC3)cc1,,"inconclusive: 5.8 µM [falling, full curve]"
CCCCCCNc1nc(-c2ccc(OC)cc2)c(CCC(=O)O)s1,inconclusive: 16.8%,
O=C(/C=C/c1cccc([N+](=O)[O-])c1)c1cccs1,,active: 23.1 µM
CCOC(=O)CN1C(=O)c2ccccc2C1=O,inconclusive: 12.1%,
COc1ccc(C(c2nnnn2Cc2ccc(F)cc2)N2CCN(c3ccc(OC)cc3)CC2)cc1 (centres undefined),,"inconclusive: 3.26 µM [activator, single point]"
COCC1CCCCN1C(=O)c1ccc(OC2CCN(Cc3ccccn3)CC2)cc1 (centres undefined),,"inconclusive: 5.8 µM [activator, full curve]"
S=c1[nH]nc(-c2cccnc2)n1/N=C/c1ccc(Br)s1,inconclusive: 17.6%,
CCCCN(CC)CCCNC(=O)c1ccc(CS(=O)(=O)c2c(Cl)cccc2Cl)o1,inconclusive: 5.99%,
O=C(COC(=O)Cn1[nH]c(=O)c2ccccc2c1=O)NNC(=O)c1ccc(Br)cc1,inconclusive: -55%,
O=C(N[C@@H](Cc1ccccc1)C(=O)N[C@@H](Cc1ccccc1)C(=O)O)OCc1ccccc1 (Cbz-Phe-Phe-OH),inconclusive: 11.9%,
COc1cccc(C2c3c(oc4ccccc4c3=O)C(=O)N2c2ccccn2)c1 (centres undefined),inconclusive: 81.8%,
Cc1cccc(C(=O)N2CCCC(Nc3ccc(C)c(C)c3)C2)n1 (centres undefined),,"inconclusive: 13 µM [activator, single point]"
COc1cccc(NC(=O)COC(=O)CCC(=O)c2cccs2)c1,inconclusive: -15.6%,
O=Cc1cccn1-c1sc2c(c1C(=O)O)CCCC2,inactive,
CCc1cc2cc(C)cc(C)c2nc1SCC(=O)N1CCN(C(=O)c2ccco2)CC1,inconclusive: 14.4%,
CCc1ccc(S(=O)(=O)NCCc2csc(-c3cccnc3)n2)s1,inconclusive: 50.7%,
O=C(O)c1cccc(S(=O)(=O)Nc2cc(Cl)ccc2Cl)c1,,"inconclusive: 11.6 µM [falling, partial curve, poor fit]"
O=C(NNC(=O)C12CC3CC(CC(C3)C1)C2)c1ccccc1[N+](=O)[O-],,"inconclusive: 8.2 µM [activator, partial curve, poor fit]"
O=C(N/N=C/c1cccnc1)c1cc2c(ccc3ccccc32)o1,,"inconclusive: 1.16 µM [rising, full curve]"
CC(C)(C)N(Cc1ccccc1)C(=O)c1ccc2c(c1)OCCO2,,"inconclusive: 29.1 µM [activator, single point]"
CC1CCN(C(=O)C2CCN(S(=O)(=O)c3cc(Cl)ccc3Cl)CC2)CC1,inconclusive: 5.58%,
O=C(CNS(=O)(=O)c1ccc2c(c1)OCCCO2)N1CCN(Cc2ccccc2)CC1,,"inconclusive: 0.231 µM [falling, full curve, poor fit]"
Nc1ccc(Oc2c(Cl)cccc2Cl)nc1,inconclusive: 2.25%,

# Nothing new here: 4 of the compounds above.
Structure (SMILES),"lipid storage change, negative = inhibition",Potency
CC(C)(C)N(Cc1ccccc1)C(=O)c1ccc2c(c1)OCCO2,,"inconclusive: 29.1 µM [activator, single point]"
CC1CCN(C(=O)C2CCN(S(=O)(=O)c3cc(Cl)ccc3Cl)CC2)CC1,inconclusive: 5.58%,
O=C(CNS(=O)(=O)c1ccc2c(c1)OCCCO2)N1CCN(Cc2ccccc2)CC1,,"inconclusive: 0.231 µM [falling, full curve, poor fit]"
Nc1ccc(Oc2c(Cl)cccc2Cl)nc1,inconclusive: 2.25%,
